Reference: the supplement of paper PMC10849652
The other results are listed elsewhere or left out.

By UniProt entry, the sequences of proteins in these tests, tags left out. Where a name states a change or a piece, a line headed by the entry shows the natural chain unless it says otherwise.
UniProt Q8WVX9: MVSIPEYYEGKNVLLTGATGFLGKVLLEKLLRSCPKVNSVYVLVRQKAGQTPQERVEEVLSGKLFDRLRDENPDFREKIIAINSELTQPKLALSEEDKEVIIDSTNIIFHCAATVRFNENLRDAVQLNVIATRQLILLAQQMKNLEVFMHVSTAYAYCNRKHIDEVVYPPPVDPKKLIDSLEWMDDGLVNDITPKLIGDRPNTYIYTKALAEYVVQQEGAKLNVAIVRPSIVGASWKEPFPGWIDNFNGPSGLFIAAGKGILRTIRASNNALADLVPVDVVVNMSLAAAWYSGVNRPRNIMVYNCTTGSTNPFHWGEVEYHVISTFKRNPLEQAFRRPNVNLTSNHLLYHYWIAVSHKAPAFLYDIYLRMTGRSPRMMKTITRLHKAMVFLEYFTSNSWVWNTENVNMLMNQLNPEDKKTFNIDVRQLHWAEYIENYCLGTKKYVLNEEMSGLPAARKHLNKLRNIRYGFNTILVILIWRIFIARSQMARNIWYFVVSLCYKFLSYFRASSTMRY
UniProt Q13045: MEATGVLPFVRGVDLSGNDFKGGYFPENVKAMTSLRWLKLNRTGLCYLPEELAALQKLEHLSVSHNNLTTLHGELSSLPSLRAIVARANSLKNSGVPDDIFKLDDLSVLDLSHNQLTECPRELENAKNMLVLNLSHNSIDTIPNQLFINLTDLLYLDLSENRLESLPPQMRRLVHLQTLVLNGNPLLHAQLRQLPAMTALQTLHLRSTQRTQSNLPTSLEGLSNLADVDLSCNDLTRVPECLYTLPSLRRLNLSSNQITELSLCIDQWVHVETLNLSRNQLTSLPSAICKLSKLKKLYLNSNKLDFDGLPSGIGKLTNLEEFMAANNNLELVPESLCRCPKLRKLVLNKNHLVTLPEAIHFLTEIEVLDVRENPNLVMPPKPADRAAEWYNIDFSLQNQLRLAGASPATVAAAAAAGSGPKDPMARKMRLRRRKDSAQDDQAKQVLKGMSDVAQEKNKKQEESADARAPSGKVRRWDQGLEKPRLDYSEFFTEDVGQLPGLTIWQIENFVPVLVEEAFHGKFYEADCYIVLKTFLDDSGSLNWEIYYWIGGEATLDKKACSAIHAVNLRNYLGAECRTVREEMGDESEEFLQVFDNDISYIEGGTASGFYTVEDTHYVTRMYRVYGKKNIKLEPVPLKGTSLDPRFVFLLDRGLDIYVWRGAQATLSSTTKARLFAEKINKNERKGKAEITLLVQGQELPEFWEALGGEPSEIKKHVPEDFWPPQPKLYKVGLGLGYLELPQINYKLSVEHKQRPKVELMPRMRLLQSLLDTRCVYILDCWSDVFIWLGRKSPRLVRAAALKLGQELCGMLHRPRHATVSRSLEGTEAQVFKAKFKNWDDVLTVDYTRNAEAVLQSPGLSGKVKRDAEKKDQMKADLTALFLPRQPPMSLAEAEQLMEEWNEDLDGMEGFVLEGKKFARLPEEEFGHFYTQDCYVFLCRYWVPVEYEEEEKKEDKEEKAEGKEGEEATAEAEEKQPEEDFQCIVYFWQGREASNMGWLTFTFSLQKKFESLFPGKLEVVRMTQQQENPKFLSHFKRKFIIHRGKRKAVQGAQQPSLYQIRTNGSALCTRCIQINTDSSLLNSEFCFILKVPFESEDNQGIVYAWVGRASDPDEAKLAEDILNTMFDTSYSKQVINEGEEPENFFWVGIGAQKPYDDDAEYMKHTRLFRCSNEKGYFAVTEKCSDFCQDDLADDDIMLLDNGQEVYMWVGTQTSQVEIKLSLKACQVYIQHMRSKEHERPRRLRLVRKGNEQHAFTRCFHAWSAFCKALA
UniProt O95684: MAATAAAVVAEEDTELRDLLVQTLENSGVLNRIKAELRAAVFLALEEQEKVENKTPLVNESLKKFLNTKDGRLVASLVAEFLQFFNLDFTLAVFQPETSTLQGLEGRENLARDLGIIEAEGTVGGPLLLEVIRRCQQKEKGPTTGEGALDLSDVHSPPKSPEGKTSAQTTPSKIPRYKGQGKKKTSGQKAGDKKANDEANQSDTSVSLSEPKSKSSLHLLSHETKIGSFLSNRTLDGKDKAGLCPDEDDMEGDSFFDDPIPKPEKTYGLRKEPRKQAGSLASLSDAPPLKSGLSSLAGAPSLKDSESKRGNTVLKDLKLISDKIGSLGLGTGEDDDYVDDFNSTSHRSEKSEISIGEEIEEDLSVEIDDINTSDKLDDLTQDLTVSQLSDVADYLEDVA
UniProt Q9NRD1: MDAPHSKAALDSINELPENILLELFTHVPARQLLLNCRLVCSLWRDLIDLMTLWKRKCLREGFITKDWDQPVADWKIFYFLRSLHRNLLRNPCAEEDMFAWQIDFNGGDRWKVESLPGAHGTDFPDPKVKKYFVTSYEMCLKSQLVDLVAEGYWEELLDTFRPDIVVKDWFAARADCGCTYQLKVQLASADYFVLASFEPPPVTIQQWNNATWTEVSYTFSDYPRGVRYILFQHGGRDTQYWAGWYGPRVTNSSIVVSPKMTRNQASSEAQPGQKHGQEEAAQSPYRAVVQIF
UniProt Q6ZV73: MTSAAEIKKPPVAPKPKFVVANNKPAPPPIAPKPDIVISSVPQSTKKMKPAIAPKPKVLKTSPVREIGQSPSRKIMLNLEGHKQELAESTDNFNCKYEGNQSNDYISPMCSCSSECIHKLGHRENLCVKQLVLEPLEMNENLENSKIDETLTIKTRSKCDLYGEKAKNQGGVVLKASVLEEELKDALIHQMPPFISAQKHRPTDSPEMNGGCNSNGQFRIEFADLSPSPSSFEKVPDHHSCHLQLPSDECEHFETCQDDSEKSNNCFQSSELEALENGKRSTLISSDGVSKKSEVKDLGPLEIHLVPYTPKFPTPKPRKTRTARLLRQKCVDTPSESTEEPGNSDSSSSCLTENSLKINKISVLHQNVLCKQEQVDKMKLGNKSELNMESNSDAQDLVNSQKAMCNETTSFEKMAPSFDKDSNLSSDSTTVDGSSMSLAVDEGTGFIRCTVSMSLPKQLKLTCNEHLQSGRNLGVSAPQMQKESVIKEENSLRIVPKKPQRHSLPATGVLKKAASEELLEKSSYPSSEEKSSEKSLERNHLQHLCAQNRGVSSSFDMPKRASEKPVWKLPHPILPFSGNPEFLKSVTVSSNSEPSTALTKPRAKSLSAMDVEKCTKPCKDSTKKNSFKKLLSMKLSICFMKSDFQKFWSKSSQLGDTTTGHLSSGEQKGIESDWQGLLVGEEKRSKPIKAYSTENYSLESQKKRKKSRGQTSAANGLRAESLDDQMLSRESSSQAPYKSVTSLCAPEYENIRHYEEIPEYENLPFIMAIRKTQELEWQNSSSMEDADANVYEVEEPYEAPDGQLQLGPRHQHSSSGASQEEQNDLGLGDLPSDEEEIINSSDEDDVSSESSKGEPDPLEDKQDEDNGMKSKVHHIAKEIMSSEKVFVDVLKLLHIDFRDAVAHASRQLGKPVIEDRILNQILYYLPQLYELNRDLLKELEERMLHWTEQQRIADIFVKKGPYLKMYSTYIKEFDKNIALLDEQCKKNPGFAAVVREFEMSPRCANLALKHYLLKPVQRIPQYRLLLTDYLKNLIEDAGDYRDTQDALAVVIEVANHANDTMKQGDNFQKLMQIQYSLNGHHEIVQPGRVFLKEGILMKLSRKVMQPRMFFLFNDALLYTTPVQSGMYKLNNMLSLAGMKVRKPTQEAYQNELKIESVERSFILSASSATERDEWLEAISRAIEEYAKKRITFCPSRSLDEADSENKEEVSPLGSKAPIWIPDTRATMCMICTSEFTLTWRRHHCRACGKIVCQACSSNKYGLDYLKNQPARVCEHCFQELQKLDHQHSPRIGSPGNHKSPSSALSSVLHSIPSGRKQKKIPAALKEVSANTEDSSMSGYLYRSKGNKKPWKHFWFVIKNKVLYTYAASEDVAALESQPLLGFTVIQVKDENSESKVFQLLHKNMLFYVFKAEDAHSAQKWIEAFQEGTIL
UniProt Q8NFF5: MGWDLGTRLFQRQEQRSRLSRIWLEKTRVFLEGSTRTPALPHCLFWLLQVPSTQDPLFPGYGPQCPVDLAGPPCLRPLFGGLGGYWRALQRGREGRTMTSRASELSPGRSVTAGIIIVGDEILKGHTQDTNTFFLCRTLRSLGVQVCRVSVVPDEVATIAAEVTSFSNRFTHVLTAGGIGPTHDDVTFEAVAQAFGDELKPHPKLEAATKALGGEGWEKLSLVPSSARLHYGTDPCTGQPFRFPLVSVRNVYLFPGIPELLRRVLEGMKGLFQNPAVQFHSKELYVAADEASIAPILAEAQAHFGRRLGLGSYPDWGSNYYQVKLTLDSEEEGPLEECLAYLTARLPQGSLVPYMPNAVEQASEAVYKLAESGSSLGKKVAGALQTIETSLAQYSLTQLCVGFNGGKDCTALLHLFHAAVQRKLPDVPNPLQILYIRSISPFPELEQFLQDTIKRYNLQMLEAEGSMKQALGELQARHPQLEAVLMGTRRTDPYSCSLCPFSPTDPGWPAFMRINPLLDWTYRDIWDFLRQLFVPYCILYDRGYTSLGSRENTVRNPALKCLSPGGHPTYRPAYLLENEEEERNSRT
UniProt Q5XUX1: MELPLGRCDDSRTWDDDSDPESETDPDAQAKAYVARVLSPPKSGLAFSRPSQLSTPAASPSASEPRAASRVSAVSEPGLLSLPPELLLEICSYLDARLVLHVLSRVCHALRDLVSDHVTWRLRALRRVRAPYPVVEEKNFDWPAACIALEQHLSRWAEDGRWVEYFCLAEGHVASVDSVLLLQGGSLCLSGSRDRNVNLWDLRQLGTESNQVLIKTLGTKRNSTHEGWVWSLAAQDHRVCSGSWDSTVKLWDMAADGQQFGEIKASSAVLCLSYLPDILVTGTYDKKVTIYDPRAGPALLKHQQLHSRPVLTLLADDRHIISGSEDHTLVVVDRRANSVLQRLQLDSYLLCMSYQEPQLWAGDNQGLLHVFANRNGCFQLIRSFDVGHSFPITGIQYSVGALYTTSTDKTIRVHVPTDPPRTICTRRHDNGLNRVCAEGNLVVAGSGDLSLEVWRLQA
UniProt Q17RN3: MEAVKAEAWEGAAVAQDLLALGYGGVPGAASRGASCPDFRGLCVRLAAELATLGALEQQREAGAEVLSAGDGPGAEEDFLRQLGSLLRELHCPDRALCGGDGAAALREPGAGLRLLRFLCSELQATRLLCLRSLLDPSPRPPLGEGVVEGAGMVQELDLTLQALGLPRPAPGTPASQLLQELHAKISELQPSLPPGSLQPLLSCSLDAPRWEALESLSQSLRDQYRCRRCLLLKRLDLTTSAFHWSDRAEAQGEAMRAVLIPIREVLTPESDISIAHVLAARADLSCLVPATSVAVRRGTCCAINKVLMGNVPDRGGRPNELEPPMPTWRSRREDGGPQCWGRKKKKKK
UniProt Q9NXK8: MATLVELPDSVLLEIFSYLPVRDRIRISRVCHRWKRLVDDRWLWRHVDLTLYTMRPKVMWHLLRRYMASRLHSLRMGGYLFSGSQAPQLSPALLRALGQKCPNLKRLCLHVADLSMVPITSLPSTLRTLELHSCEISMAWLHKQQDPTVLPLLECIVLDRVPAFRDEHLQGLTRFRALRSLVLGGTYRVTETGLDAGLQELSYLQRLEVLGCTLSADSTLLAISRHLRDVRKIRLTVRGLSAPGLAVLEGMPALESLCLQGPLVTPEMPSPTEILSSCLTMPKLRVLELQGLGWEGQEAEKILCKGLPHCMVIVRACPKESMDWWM
UniProt Q14318: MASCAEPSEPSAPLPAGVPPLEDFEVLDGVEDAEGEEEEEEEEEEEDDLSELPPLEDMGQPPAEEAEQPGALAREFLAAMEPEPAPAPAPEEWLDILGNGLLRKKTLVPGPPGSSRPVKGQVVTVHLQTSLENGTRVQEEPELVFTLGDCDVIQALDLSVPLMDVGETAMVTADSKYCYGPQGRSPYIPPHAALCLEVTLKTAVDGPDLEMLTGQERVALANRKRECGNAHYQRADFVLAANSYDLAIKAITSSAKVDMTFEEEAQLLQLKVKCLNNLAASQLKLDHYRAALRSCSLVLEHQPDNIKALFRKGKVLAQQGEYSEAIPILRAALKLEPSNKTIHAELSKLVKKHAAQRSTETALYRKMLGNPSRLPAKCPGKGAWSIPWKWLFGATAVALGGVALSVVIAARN

What follows are targets tested with Cc1nc(Nc2ncc(C(=O)Nc3c(C)cccc3Cl)s2)cc(N2CCN(CCO)CC2)n1 [dasatinib] (assay: log2 fold change, soluble protein after heating vs DMSO (PISA); higher = thermal stabilisation; K562 lysate, 10 uM; active = over 0.2 and 3.5 SD of the protein, either way, in both replicates (recomputed)).
In short: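 Values give the log-two fold change in thermal stability against solvent controls, from duplicates. Crude K562 extract at 1 mg/mL protein, made by dounce homogenisation in PBS pH 7.4 with 1 mM MgCl2, was treated with 10 μM compound for 30 min. After 3 min heating across 48°C-58°C, aliquots were pooled, adjusted to 0.5% NP-40 at 4°C and centrifuged at 21,000xg for 90 min. The supernatant was measured by TMTpro 16plex LC-MS/MS with channel sums equalised.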

log2 fold change, inactive:
FKBPL (UniProt Q9UIM3) 0.04
FAR1 (UniProt Q8WVX9) -0.131
FLII (UniProt Q13045) -0.025
FAU (UniProt E9PR30) -0.018
FGFR1OP (UniProt O95684) -0.019
FNTB (UniProt P49356) 0.018
FBXO6 (UniProt Q9NRD1) 0.051
FGD6 (UniProt Q6ZV73) 0.176
FLAD1 (UniProt Q8NFF5) 0.002
FLNC (UniProt Q14315) 0.007
FAM8A1 (UniProt Q9UBU6) 0.1
FBXW9 (UniProt Q5XUX1) -0.012
FAM98C (UniProt Q17RN3) 0.034
FIBP (UniProt O43427) 0.013
FBXL12 (UniProt Q9NXK8) -0.089
FBLL1 (UniProt A6NHQ2) -0.048
FN1 (UniProt P02751) 0.034
FECH isoform 2 (UniProt P22830) 0.353
FAM98A (UniProt Q8NCA5) -0.034
FASN (UniProt P49327) -0.022
FKBP2 (UniProt P26885) -0.018
FMNL1 isoform 3 (UniProt O95466) -0.13
FKBP8 isoform 2 (UniProt Q14318) -0.056

An excerpt of the results above:
log2 fold change, inactive:
FECH isoform 2 (UniProt P22830) 0.353
FAM98A (UniProt Q8NCA5) -0.034
FASN (UniProt P49327) -0.022
FKBP2 (UniProt P26885) -0.018
FMNL1 isoform 3 (UniProt O95466) -0.13
